Values joined by “and” are separate entries in the source; they are usually repeats but may differ in a detail not shown here. Equal entries are not always repeated. The inconclusive results got no clear call from the source; some entries with a clear call stand among them for comparison. Potencies beside an inconclusive call are fits to weak or partial responses and may not hold up. Active and inactive are the calls of the source. The call rests on the fitted dose curve; in most records, active means well fitted inhibition curve with a large enough effect; inconclusive means small, poorly fitted or top-dose-only effect; inactive means flat fitted curve, though single readings scatter.
Test: qHTS Assay for Compounds Blocking the Interaction Between CBF-beta and RUNX1 for the Treatment of Acute Myeloid Leukemia: ME-1 cellular proliferation
Conditions: ME-1 cell proliferation, ATP luminescence, 48 h; series mostly up to 56.1 µM
Text: NIH Chemical Genomics Center [NCGC]
NIH Molecular Libraries Probe Production centers Network [MLPCN]
Assay Submitter (PI): Paul Liu
Core Binding Factor (CBF) abnormalities are associated with 20-25% of all acute myeloid leukemias (AML), of which 5-10% are further sub classified as acute myelomonocytic leukemia with eosinophilia, also known as M4Eo in the FAB classification scheme. This subtype of leukemia is usually associated with chromosome 16 inversion (p13:q22). Chromosome 16 inversion results in formation of the fusion oncogene CBFB-MYH11, which encodes the fusion protein CBF-beta-SMMHC.
It has been hypothesized that the interference of CBF-beta and RUNX1 binding could have therapeutic implications for patients with CBF mediated leukemias. We developed a CBF-beta and RUNX1 binding assay in AlphaScreenTM format and optimized it for high throughput screening to search for inhibitors. The goal of this project is to screen MLPCN's compound collection (MLSMR) for identifying the inhibitors of the interaction between CBF-beta and RUNX1 proteins as research probes. If these probes work well in the animal models, the ultimate goal of this project is to development a new drug treatment for this disease.
The present assay assesses compounds ability to slow cellular proliferation in a CBFb dependent cell line, ME-1.
2uL/well media was dispensed per well into 1536-well white solid-bottom plates using Multidrop Combi dispenser. Subsequently, 23 nL/well compound solutions or DMSO controls were dispensed to the assay plates via a pintool workstation. The cells were grown in T225 flasks to 70% confluence under a standard cell culture condition (ATCC), detached with 0.25% Trypsin/EDTA, and seeded at 250 cells/well in 5uL medium (Dulbecco's Modified Eagle Medium, 10% fetal bovine serum, 1x penicillin/streptomycin).

Row | Compound | Potency
1 | CCCCc1ccc(C(=O)O)nc1 | inconclusive: 35.5 µM [inhibitor, partial curve]
2 | O=C1C=CC(=O)c2c(O)cccc21 | active: 22.4 µM
3 | CCCCNC(=O)Oc1c(Br)cc2sc(=O)oc2c1Br | inconclusive: 14.1 µM [inhibitor, single point]
4 | NCCc1cc(O)c(O)cc1O | inactive and inconclusive: 22.4 µM [inhibitor, single point]
5 | CCn1nc(-c2ccccc2)nc2c(=O)n(C)c(=O)nc1-2 | active: 11.2 µM
6 | CC(C)C[C@H]1C(=O)N2CCCC2[C@]2(O)O[C@](NC(=O)[C@@H]3C=C4c5cccc6[nH]cc(c56)CC4N(C)C3)(C(C)C)C(=O)N12 (stereo partly drawn) | inconclusive: 35.5 µM [inhibitor, single point] and inconclusive: 28.2 µM [inhibitor, partial curve, poor fit]
7 | CC[n+]1c(-c2ccccc2)c2cc(N)ccc2c2ccc(N)cc21 | active: 10 µM
8 | CC(C)[C@@]1(NC(=O)[C@H]2CC3c4cccc5[nH]cc(c45)C[C@H]3N(C)C2)O[C@@]2(O)C3CCCN3C(=O)[C@@H](Cc3ccccc3)N2C1=O (stereo partly drawn) | inconclusive: 25.1 µM [inhibitor, partial curve, poor fit]

Reformatted: 2 of the compounds above.
Row,Compound,Potency
5,CCn1nc(-c2ccccc2)nc2c(=O)n(C)c(=O)nc1-2,active: 11.2 µM
6,CC(C)C[C@H]1C(=O)N2CCCC2[C@]2(O)O[C@](NC(=O)[C@@H]3C=C4c5cccc6[nH]cc(c56)CC4N(C)C3)(C(C)C)C(=O)N12 (stereo partly drawn),"inconclusive: 35.5 µM [inhibitor, single point] and inconclusive: 28.2 µM [inhibitor, partial curve, poor fit]"
